Results are given in words; binding and its absence hold for the method and conditions named. In cells and extracts the contact can be indirect. Some entries that bind do so weakly or less than the wild type.
Key:
[1] = biological target: RICTOR (human (endogenous in HT1080 and HeLa)) (UniProt Q6R327); test: poly(A) mRNA pull-down with oligo(dT) cellulose; mRNA-bound ribosomes purified from cell lysate (50 mM Tris-HCl pH 7.4, 100 mM NaCl, 30 mM MgCl2, 0.3% CHAPS, cycloheximide) with oligo(dT) cellulose, 1 h at RT; immunoblot
[2] = biological target: RICTOR (human (endogenous in HT1080 and HeLa)) (UniProt Q6R327); test: co-IP; anti-RICTOR immunoprecipitates of HT1080 cells transiently transfected with TMBIM6 and TMBIM6 mutant constructs, immunoblot
[3] = biological target: RICTOR (human (endogenous in HT1080 and HeLa)) (UniProt Q6R327); test: SEC + co-IP; lysate of TMBIM6 KO HT1080 cells transiently overexpressing TMBIM6-HA in CHAPS buffer (25 mM HEPES pH 7.4, 150 mM NaCl, 1 mM EDTA, 0.3% CHAPS) on Superdex 200 Increase 10/300 GL; pooled fractions immunoprecipitated with anti-RICTOR antibody

Amino acid sequences for entries named in this document (tags omitted).
UniProt Q6R327: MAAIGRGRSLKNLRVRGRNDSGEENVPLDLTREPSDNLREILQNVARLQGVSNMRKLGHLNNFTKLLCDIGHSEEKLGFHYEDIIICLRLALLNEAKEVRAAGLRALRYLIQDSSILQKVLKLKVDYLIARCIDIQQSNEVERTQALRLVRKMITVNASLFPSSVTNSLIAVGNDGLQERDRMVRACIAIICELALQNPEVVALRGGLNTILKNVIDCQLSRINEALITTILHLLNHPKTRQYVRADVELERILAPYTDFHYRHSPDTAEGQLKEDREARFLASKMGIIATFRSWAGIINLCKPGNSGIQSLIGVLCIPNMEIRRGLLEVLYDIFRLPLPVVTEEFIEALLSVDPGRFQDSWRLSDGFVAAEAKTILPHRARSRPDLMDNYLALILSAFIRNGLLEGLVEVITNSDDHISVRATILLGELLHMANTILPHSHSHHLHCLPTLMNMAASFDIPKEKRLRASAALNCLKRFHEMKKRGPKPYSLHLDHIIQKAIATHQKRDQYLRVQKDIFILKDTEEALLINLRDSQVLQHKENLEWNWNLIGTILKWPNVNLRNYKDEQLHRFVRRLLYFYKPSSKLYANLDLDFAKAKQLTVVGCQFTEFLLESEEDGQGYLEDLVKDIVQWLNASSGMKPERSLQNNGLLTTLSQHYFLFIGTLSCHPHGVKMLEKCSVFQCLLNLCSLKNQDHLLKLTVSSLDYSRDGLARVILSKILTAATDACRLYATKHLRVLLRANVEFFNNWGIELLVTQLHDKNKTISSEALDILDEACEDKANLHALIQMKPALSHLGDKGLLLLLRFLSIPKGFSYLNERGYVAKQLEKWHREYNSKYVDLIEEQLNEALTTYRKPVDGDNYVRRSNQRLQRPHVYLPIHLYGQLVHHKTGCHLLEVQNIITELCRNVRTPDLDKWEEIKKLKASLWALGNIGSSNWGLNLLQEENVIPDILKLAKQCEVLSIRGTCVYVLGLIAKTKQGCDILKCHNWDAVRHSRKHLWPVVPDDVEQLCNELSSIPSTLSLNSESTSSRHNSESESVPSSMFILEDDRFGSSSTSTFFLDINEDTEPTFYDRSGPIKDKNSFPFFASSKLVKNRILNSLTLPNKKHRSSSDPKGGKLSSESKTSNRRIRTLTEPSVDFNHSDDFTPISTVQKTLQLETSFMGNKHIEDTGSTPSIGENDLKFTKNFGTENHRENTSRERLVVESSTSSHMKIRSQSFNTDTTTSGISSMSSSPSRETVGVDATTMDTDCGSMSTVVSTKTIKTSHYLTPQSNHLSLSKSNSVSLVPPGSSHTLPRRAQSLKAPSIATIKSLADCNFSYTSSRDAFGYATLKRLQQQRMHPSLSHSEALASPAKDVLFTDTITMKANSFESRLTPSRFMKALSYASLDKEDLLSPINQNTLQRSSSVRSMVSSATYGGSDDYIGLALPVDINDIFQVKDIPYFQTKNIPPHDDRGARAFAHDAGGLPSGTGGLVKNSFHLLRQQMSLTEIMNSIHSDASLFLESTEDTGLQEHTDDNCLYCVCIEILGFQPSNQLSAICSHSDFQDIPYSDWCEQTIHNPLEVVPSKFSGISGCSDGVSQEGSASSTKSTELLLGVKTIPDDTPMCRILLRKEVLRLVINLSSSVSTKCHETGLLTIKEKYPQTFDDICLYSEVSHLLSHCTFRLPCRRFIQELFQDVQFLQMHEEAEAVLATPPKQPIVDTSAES

Row | binding [1] | Substance | binding [2] | binding [3]
1 | binds | TMBIM6 (from UniProt P55061 1-237) |  | 
2 |  | TMBIM6-HA (human influenza hemagglutinin (HA)-tagged TMBIM6) (from UniProt P55061 1-237) | binds | binds
3 |  | TMBIM6-ΔN (from UniProt P55061 30-237) (domain or fragment) | binds | 

Reference: paper PMC7419509
